Results as given in patent US20230399394A1.
These are yes or no findings as the source states them, for the method shown. Some results given as binding are weak or reduced against the parent protein; the word gives no strength.

Tests used:
[1] = biological target: Cynomolgus IL-33-his (cynomolgus); assay: indirect ELISA, biotinylated cynomolgus IL-33-his on streptavidin plate
[2] = biological target: Cynomolgus IL-33-his (cynomolgus); assay: indirect ELISA, biotinylated cynomolgus IL-33-his captured on a streptavidin plate, HRP goat anti-mouse IgG, absorbance 450 nm
[3] = biological target: Cynomolgus IL-33-his (cynomolgus); assay: SPR Biacore 8K as Example 14

Binder	binding [1]	binding [2]	binding [3]
874F7 (antibody, V domains shown) VH: QVQLKESGPGLVAPSHSLSITCNVSGFSLSKYGVHWIRQIPGRGLDWLGVLRAGGSTGYNSALMSRLSISKDSSKSQVFLKMNDLRTDDTAVYFCVRDHYYYSSYGGFVYWGQGTLVTVSA VL: DIQMTQSPASQSASLGESVTITCLASQTIGAWLAWYRQQPGKSPQLLIYAATRLADGVPSRFSGSGSGTEFSFKINNLQAEDFVSYYCQQLDSSPYTFGGGTRLEM	binds	binds	–
871G1 (antibody, V domains shown) VH: QVHLKESGPGLVAPSQSLSITCNVSGFSLSKYGVHWIRQTPGRGLDWLGVLRAGGTISYNSALMSRLSISEDISKSQVFLKMNDLQTDDSAIYFCARDHYYYSSFGGFASWGQGTLVTVSA VL: DIQMTQSPASQSASLGESVTITCLASQTIGAWLAWYRQQPGKSPQLLIYAATRLADGVPSRFSGSGSGTKFSFKINNLQAEDFVIYYCQQLNSTPYTFGGGTRLEM	binds	binds	–
864F3-Hu4 (antibody, human IgG4 S228P, kappa, V domains shown) VH: QVQLQESGPGLVKPSETLSLTCTVSGFSLSKYGVHWIRQPPGKGLEWIGVLRAGGTISYNSALMSRVTISEDISKSQVSLKLSSVTAADTAVYYCARDHYYYSSFGGFASWGQGTLVTVSS VL: DIQMTQSPSSLSASVGDRVTITCLASQTIATWLAWYQQKPGKSPKLLIYAATRLADGVPSRFSGSGSGTDFTLTISSLQPEDFATYYCQQLYNTPYTFGQGTKVEIKR	–	–	binds
